According to the supplement of paper PMC10849652:
Some of the results follow.

Chains of the proteins cited; added tags and fusions are not shown. Lines headed by an entry give the natural chain unless they say otherwise; changes in a name come on top.
UniProt Q76FK4: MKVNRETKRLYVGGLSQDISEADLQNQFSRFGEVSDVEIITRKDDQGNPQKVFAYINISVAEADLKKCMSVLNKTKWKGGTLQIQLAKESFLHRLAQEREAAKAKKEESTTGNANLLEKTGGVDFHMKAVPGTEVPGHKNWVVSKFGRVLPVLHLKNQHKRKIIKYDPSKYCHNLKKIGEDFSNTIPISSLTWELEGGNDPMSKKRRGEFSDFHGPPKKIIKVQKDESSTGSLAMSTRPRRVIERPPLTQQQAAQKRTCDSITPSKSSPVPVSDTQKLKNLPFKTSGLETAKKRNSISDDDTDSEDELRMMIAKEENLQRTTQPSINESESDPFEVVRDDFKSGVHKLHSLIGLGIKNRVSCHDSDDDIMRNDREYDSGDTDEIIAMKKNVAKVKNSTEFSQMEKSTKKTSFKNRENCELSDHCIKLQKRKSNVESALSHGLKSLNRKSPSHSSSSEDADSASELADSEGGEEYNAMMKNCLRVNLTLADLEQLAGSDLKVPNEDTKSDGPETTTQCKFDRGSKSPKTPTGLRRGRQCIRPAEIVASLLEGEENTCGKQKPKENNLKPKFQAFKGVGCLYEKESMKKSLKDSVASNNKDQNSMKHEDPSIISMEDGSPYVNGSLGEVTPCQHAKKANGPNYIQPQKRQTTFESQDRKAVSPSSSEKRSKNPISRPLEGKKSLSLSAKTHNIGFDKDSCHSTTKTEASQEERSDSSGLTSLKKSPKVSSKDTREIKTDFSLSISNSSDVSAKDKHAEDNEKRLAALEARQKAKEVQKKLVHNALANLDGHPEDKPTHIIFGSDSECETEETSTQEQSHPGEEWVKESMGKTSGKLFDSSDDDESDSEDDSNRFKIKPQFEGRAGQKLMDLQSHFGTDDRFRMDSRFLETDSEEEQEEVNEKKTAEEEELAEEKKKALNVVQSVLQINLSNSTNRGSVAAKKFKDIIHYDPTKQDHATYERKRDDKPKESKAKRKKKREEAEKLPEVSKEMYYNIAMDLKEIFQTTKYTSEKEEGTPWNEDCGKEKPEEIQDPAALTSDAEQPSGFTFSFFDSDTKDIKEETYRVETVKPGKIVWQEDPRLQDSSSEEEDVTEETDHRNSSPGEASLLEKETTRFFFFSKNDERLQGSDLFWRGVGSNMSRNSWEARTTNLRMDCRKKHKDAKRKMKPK
UniProt P04150: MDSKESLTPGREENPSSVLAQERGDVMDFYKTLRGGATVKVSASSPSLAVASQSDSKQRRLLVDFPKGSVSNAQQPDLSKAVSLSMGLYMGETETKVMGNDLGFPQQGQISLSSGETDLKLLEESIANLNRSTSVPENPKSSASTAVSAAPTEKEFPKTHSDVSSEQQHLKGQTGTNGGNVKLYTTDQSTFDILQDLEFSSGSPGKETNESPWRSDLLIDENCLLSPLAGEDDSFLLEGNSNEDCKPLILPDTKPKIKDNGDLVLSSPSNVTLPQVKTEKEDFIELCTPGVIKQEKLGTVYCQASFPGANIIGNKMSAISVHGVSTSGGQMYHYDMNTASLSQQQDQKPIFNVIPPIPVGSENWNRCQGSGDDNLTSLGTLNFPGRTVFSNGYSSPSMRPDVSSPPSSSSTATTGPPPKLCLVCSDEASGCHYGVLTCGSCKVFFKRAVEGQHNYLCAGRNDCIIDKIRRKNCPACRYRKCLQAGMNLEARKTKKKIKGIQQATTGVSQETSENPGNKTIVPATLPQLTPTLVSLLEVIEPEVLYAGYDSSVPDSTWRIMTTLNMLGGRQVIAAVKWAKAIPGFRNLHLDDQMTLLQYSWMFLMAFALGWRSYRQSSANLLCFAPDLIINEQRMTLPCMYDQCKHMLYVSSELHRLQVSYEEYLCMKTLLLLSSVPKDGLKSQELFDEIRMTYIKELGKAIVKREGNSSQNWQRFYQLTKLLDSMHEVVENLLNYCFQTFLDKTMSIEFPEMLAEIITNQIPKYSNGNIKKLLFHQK
UniProt P08651, whole entry, looked up: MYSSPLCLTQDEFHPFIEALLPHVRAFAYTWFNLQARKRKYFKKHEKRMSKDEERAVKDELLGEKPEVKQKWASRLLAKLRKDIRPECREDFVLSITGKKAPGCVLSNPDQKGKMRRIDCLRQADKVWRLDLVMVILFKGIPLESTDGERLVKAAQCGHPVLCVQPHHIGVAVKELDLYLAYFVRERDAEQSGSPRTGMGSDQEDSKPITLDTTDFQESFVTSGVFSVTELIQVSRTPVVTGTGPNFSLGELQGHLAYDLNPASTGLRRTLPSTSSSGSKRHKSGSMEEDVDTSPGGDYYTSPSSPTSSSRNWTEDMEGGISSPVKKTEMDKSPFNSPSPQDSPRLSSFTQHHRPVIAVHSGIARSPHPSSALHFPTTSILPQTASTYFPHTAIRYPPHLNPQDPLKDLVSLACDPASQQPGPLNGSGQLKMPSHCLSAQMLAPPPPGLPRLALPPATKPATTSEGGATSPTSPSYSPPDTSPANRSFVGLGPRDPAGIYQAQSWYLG
UniProt Q9GZP1: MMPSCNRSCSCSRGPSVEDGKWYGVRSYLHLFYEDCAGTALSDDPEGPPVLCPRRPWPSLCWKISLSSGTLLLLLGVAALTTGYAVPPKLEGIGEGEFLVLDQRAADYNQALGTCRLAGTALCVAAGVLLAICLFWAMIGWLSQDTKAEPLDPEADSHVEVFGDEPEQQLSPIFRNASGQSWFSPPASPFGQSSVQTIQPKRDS

How the values were obtained:
Experiment in all cases: log2 fold change, soluble protein after heating vs DMSO (PISA); higher = thermal stabilisation; K562 cells, 10 uM, 30 min; active = over 0.2 and 3.5 SD of the protein, either way, in both replicates (recomputed)
[1] = compound: O=C(CCCCCCC(=O)Nc1ccccc1)NO [vorinostat]
Method in brief: (§1)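 Aliquots of K562 cells (2×10^6 cells/mL) treated with 10 μM compound for 30 min were heated for 3 min over 48°C-58°C. After pooling and extraction in PBS with 0.5% NP-40 at 4°C, soluble protein from a 21,000xg, 90 min spin was quantified by TMTpro 16plex LC-MS/MS with channel sums equalised. Thermal stability is expressed against control samples, from duplicates, as a log2 fold change.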

[2] = compound: NC(=O)c1cnc(N[C@@H]2CCCC[C@@H]2N)nc1Nc1cccc(-n2nccn2)c1
Method in brief: as §1

[3] = compound: NC1(c2ccc(-c3nc4ccn5c(=O)[nH]nc5c4cc3-c3ccccc3)cc2)CCC1
Method in brief: as §1

[4] = compound: O=C(CCCCCCNC(=O)c1cnc(N(c2ccccc2)c2ccccc2Cl)nc1)NO [citarinostat]
Method in brief: as §1

[5] = compound: O=C(O)c1ccc2c(c1)nc(Nc1cccc(Cl)c1)c1ccncc12 [silmitasertib]
Method in brief: as §1

[6] = compound: O=C1NC(=O)C(c2cnc3ccccn23)=C1c1cn2c3c(cc(F)cc13)CN(C(=O)N1CCCCC1)CC2
Method in brief: as §1

[7] = compound: c1cc(OCCN2CCCCC2)cc(-c2n[nH]c3ccc(-c4nnc[nH]4)cc23)c1
Method in brief: as §1

[8] = compound: NCC(=O)Nc1ccc(-n2nc(C(F)(F)F)cc2-c2ccc3c(ccc4ccccc43)c2)cc1
Method in brief: as §1

[9] = compound: NC(=O)Nc1cc(-c2cccc(F)c2)sc1C(=O)N[C@H]1CCCNC1
Method in brief: as §1

[10] = compound: Nc1ccccc1NC(=O)c1ccc(CNC(=O)OCc2cccnc2)cc1 [entinostat]
Method in brief: as §1

NOL8 (UniProt Q76FK4)
log2 fold change [1]: inactive: -0.156

NR3C1 isoform 3 (UniProt P04150)
log2 fold change [2]: inactive: 0.031
log2 fold change [3]: inactive: -0.102
log2 fold change [4]: inactive: -0.07
log2 fold change [5]: inactive: 0.072
log2 fold change [6]: inactive: -0.119
log2 fold change [7]: inactive: -0.404

NFIC isoform 6 (UniProt P08651)
log2 fold change [8]: inactive: -0.395

NRSN2 (UniProt Q9GZP1)
log2 fold change [9]: inactive: 0.155
log2 fold change [10]: inactive: -0.063
log2 fold change [6]: inactive: -0.002
